Assay results as given in patent US20210156846A1, “MICROFLUIDIC PLATFORM FOR TARGET AND BIOMARKER DISCOVERY FOR NON-ALCOHOLIC FATTY LIVER DISEASE” (Javelin Biotech, Inc., priority 2019, published 2021).
At least one structure is not confirmed: it was looked up by name or label, or the drawing left a doubt.

Tested on: liver-adipose crosstalk MPSs
Experiment: Disease severity in NAFLD liver-adipose crosstalk MPS after treatment
Type: cell-based, human
Conditions: MHM-induced NAFLD liver-adipose crosstalk MPS; no data shown
Description: The disease modifying potential of targets is evaluated using one or both of large and small molecules and functional genomics tools, such as CRISPR. For example, large molecules can include ligand antagonists, Humira (adalimumab) blocks, and TNF-α. Healthy and NAFLD liver-adipose MPSs are established previously described. Following disease induction, the liver-adipose MPSs are treated with small molecules (alone and in combination) or CRISPR short guide RNAs (sgRNAs) that modulate the activity or expression of disease-relevant signaling pathways (e.g. CCR2-5, FXR, PPARγ, PPARβ/δ, and PPARγ) as previously described in relation to FIG. 4. The dosing regimen are optimized using the efficacy data generated using the liver and adipose spheroids previously described. The disease-modifying potential of the therapeutic treatment regimens in the liver-adipose crosstalk MPS 120 are determined using phenotypic (e.g., IR, steatosis, steatohepatitis, and fibrosis) and biomarker (apoptosis, hepatokine, adipokine, cytokine) readouts.
In the liver-adipose MPS 120, MHM induces a NAFLD phenotype in the liver (e.g., oxidative stress, steatosis, and fibrosis) and adipose tissue (e.g., steatosis) compared to MPSs cultured in healthy medium. Clinical biomarkers of NAFLD (e.g., AST, ALT, cytokeratin-18) are elevated in diseased systems compared to healthy systems. […]

Row | Compound | severity of the steatosis, fibrosis, and insulin resistance
1 | CN(CCOc1ccc(CC2SC(=O)NC2=O)cc1)c1ccccn1 (centres unmarked) [rosiglitazone] | reduce the severity
2 | CC[C@H]1[C@@H](O)[C@@H]2[C@H](CC[C@]3(C)[C@@H]([C@H](C)CCC(=O)O)CC[C@@H]23)[C@@]2(C)CC[C@@H](O)C[C@@H]12 [OCA, obeticholic acid] | reduce the severity
